Some of the results follow.
The sequences below were run against OsWRKY34 (Oryza sativa, UniProt Q0JBA9 1-250) (assay: protein-binding microarray (RPBM); PBS, 2% BSA, 51.3 ng/ul salmon testes DNA, 50 uM zinc acetate, 200 nM TF, 25 C, 1 h; high values mean tight binding). Conditions: protein: recombinant; tags: N-terminal polyhistidine and DsRed monomer fusion (pET32a); label: CyDye5-dUTP incorporated in the synthesized complementary strand; 3' TTTTT single-stranded linker to array surface; dsDNA, one strand shown.
Outline: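 For the binding signal, per-feature fluorescence intensity was read in arbitrary units on an Axon 4000B scanner. Before scanning, a 2% BSA-blocked custom Agilent array made double-stranded with Cy5-dUTP was washed after 1 h at 25 °C with 200 nM protein and 50 µM zinc acetate. The proteins were Ni–NTA-purified transcription factors with N-terminal polyhistidine and DsRed fusions, expressed in E. coli BL21-CodonPlus.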

By UniProt entry, the sequences of proteins in these tests, tags left out.
UniProt Q0JBA9, entry or part of it: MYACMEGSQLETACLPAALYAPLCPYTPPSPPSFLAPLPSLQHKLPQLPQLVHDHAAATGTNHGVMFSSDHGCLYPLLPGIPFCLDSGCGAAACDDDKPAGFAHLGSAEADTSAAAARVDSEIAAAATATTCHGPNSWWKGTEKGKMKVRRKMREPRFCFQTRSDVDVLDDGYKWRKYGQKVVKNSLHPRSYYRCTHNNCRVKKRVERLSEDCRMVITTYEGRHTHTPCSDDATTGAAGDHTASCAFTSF

| Sequence | binding signal |
| --- | --- |
| CCAGTGAGACAAGTACCTGCATTCCTCTGCGCTTTTCTTTCGGAGTCACCTAGTGCAG | 11700 fluorescence intensity (a.u.) |
| GGAGGGGTATTTTGGTCATTAGTCTAGAAACTTCCTTTTCCGGAGTCACCTAGTGCAG | 11700 fluorescence intensity (a.u.) |
| ACAACCATCGTTGATTTTATTTCTTTGTCATTTTCTCATTCGGAGTCACCTAGTGCAG | 9840 fluorescence intensity (a.u.) |
| ATCGCCTTGGGTTGGGTTGTGTCTCTCTCTCTGTCTCCAGCGGAGTCACCTAGTGCAG | 11200 fluorescence intensity (a.u.) |
| GGTCGTGCGGCGGGAGGAGGGCGGCGGCGGCTTGGAACTCCGGAGTCACCTAGTGCAG | 10100 fluorescence intensity (a.u.) |
| CACCTCACCTCACTCATCCCTGCCAATCCACGCGCTTAATCGGAGTCACCTAGTGCAG | 8210 fluorescence intensity (a.u.) |
| TAGGAATATATTTTTTGGGTTTTTTTTGTAACATACACATCGGAGTCACCTAGTGCAG | 8380 fluorescence intensity (a.u.) |
| AGACCTATTTTTGGGTACTGTAACTTCCTCGAGATTAGATCGGAGTCACCTAGTGCAG | 9040 fluorescence intensity (a.u.) |
| TGGATTGATTTCTTCTTTTGTTGGTAAGGAACCCTGTTTTCGGAGTCACCTAGTGCAG | 9390 fluorescence intensity (a.u.) |
| ACACACCCACACTCCTCCATTCACAAAGACCAATATAAATCGGAGTCACCTAGTGCAG | 8210 fluorescence intensity (a.u.) |
| GCTTGACCGCTTCTTCAATCTTGATCCGTCCCTCTCACTACGGAGTCACCTAGTGCAG | 8680 fluorescence intensity (a.u.) |
| CGCCTCAACACCTGCCAATCAAGCCGGTACCTTTCTCTCTCGGAGTCACCTAGTGCAG | 8810 fluorescence intensity (a.u.) |
| AAAATGCCACATCGGTATGCCGCATCTTCGTTGCAATCTTCGGAGTCACCTAGTGCAG | 8350 fluorescence intensity (a.u.) |
| CTTGCTTTCATTTTTTTCCTTCCTTTCTTTCTTTCTTTCTCGGAGTCACCTAGTGCAG | 8070 fluorescence intensity (a.u.) |
| ACCGGCAGACGGCAGTCCAGCACTCCCGCAATCCCGCTGCCGGAGTCACCTAGTGCAG | 9000 fluorescence intensity (a.u.) |
| TTTGATCTAACTCTTGTTGTGCACTCGGTTCAGACATATCCGGAGTCACCTAGTGCAG | 9240 fluorescence intensity (a.u.) |
| CTTGTTGACATTCTTTGGTGAGTTTGTCATGGTCTAAAATCGGAGTCACCTAGTGCAG | 8380 fluorescence intensity (a.u.) |
| GCCTGATTATCCATTGTTCATCCTGCCATATTGATTTCAGCGGAGTCACCTAGTGCAG | 9780 fluorescence intensity (a.u.) |
| TACTACTACTTTCATTGGCCCTGCAATTATTCGTTCAGAACGGAGTCACCTAGTGCAG | 9750 fluorescence intensity (a.u.) |
| GTTCTTTGTTGGTTTTGACCCTGATTTTATTCGATGTGACCGGAGTCACCTAGTGCAG | 8540 fluorescence intensity (a.u.) |
| TGGATCGGAGCTCTGCTCACGGTGTTTAGCTACCGTTTCTCGGAGTCACCTAGTGCAG | 8470 fluorescence intensity (a.u.) |

| Sequence | binding signal |
| --- | --- |
| CTTCTCGTTCACACTTTTCCAAACGATCGACTGCATAAAACGGAGTCACCTAGTGCAG | 12700 fluorescence intensity (a.u.) |
| CTTTTTGCAACAGTCTCATTTCTACCCTCATTGTTAACTTCGGAGTCACCTAGTGCAG | 8700 fluorescence intensity (a.u.) |
| TGCAGTTTGAACGCGTTGCTATACTCACAGCCCCTATATCCGGAGTCACCTAGTGCAG | 8220 fluorescence intensity (a.u.) |
| TTCGTTGACCAGAATTGAGGGGCTAGCTTAATATTAAATTCGGAGTCACCTAGTGCAG | 8890 fluorescence intensity (a.u.) |
| GTCTCGCCGCTCGCCGCCCGCGCGCGCTCGCGTCTCTCGCCGGAGTCACCTAGTGCAG | 8500 fluorescence intensity (a.u.) |
| GTTTCCAAGGCTGACCTCCACCATTTCTGGGATCTCTCCACGGAGTCACCTAGTGCAG | 8270 fluorescence intensity (a.u.) |
| GAACCCGATCAGCAGCCGTGCACGTGTCCCATACGCCGTTCGGAGTCACCTAGTGCAG | 9570 fluorescence intensity (a.u.) |
| GTTTATTTTAAGACAGAGGGACTAACCTACCACTCTCTCCCGGAGTCACCTAGTGCAG | 9560 fluorescence intensity (a.u.) |
| GTATCTTCATATTCCAAAATAGTTGTGGTGGGGTAGTGAGCGGAGTCACCTAGTGCAG | 9700 fluorescence intensity (a.u.) |
| GATCTCACGATTCGCCTCCGCCGCCCCGTCCTGTTCCCCACGGAGTCACCTAGTGCAG | 8560 fluorescence intensity (a.u.) |
| AACACAACACTTGCAAAATTCTGATGAGTACTTCAAAACTCGGAGTCACCTAGTGCAG | 8560 fluorescence intensity (a.u.) |
| CTCACATATCTCTTTATCCACACGCATATTTTTCAGACGGCGGAGTCACCTAGTGCAG | 9500 fluorescence intensity (a.u.) |
| CGTCCTCGCCGATTCCCACGCCGCCGCCCATCAACTCCGACGGAGTCACCTAGTGCAG | 13200 fluorescence intensity (a.u.) |
| CATCTCTCTCTCTCTCTCTCTCTCTCTCTCTCCCACCCCACGGAGTCACCTAGTGCAG | 8230 fluorescence intensity (a.u.) |
| ACTTAAATTTTTACCCAATTTTTGAGGCTTTTCATTCAAACGGAGTCACCTAGTGCAG | 8090 fluorescence intensity (a.u.) |
| GATCTCGCAATGTGGATTTGTGGTGGCTGTGGGTGGATAACGGAGTCACCTAGTGCAG | 9150 fluorescence intensity (a.u.) |
| GATTAAAGAACCGCTTTTCTAAGTACTTTTGACTTGATTACGGAGTCACCTAGTGCAG | 8310 fluorescence intensity (a.u.) |
| AACCTGTACCAATTTTAGGTGAATTTCGTTCTGTTTCACCCGGAGTCACCTAGTGCAG | 9090 fluorescence intensity (a.u.) |
| TACTCCACCACTGACCACTCCACTCCACAGCTCCACTCCACGGAGTCACCTAGTGCAG | 9040 fluorescence intensity (a.u.) |
| AGTTCTCTACCGTCACGATCTACTCCTATTTGTTAATGAACGGAGTCACCTAGTGCAG | 9370 fluorescence intensity (a.u.) |
| GGTTAGACCAAATACCCACCCCTACGTGCACCCGACACTACGGAGTCACCTAGTGCAG | 8110 fluorescence intensity (a.u.) |

Some of the entries so far, bar-delimited.
Sequence | binding signal
AACACAACACTTGCAAAATTCTGATGAGTACTTCAAAACTCGGAGTCACCTAGTGCAG | 8560 fluorescence intensity (a.u.)
CTCACATATCTCTTTATCCACACGCATATTTTTCAGACGGCGGAGTCACCTAGTGCAG | 9500 fluorescence intensity (a.u.)
CGTCCTCGCCGATTCCCACGCCGCCGCCCATCAACTCCGACGGAGTCACCTAGTGCAG | 13200 fluorescence intensity (a.u.)
